Test results as given in paper PMC3469484.

Tested on: T1, OhrR WT (Chromobacterium violaceum ATCC 12472)
T1 sequence (looked up): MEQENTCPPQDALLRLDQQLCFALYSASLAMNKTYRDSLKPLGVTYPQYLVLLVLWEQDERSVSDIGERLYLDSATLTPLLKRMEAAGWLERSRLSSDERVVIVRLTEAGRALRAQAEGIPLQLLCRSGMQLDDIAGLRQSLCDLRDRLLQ
Assay: competition with a labelled probe
Conditions: 250 nM OhrR, EMSA: 20 mM Tris-HCl pH 7.4, 50 mM KCl, 1 mM DTT, 1 mM EDTA, 5% glycerol, 0.05 mg/ml BSA, 0.1 mg/ml salmon sperm DNA, 25 C, 25 min, footprinting the same without EDTA, recombinant protein, residues 1-151, protein details: N-terminal His (pProEX HTa), probe letters rebuilt from the primers and the genome

Sequence | binding result (30-fold unlabeled ohrA promoter) | binding result (30-fold unlabeled ohrR promoter)
TAAGCTTGCGGTGGCTTCGGCGGTATACAGTACTTTTTGCAGAGGGTTCATCTGGCTCTCCTTGGCTTGACGCCGTTGCGATTAAAATAATGAGCTATTTAATAGTGCACTATCTAACTATCAAAACCCTGACGGGTTCATTGCAGCAGCCGGTCGCGCAGATCGCACAGCGACTGCCTCAATCCGGCGATATCGTCCAGTTGCATTCCGCTCCGGCAGGATCCA (double strand) [ohrA promoter] | binds | –
TGGATCCCTCGCTGGCCGATCTGGGACGCGGCCCGGTGCGGGCGGCCGCCTGATCGCGGTTTCGCGCCCGCTTGGCGCGGGCGCGTCGCGGTTCCGCATAATAATAAATTGCTTGCAATTAAATAGTGCACTATTTATTATGCGGCCATGGAACAAGAAAACACGTGCCCGCCGCAGGACGCGCTTTTGCGGCTGGACCAGCAACTCTGCTTCGCGCTGTATTCCGCCAAGCTTA (double strand) [ohrR promoter] | – | binds

For at least one entry, the source does not settle the construct or the ends of the probe. At least one verdict was read from the data and is not stated in words by the source. Tags and fusion partners may be left off the protein sequences shown.
